US10793526B2, “Hydantoin derivative compounds, methods of use and methods of treatment” (University of South Florida, priority 2016, dated 2020)

Tested on: red blood cells (RBCs) of mice
Assay: Hemolytic assay
Assay type: cell-based
Conditions: selectivity index, MRSA MIC vs hemolytic activity
Experimental: Fresh red blood cells (RBCs) of mice were washed with 1×PBS buffer and centrifuged 10 min at 3500 rpm for 3 times until the supernatant was clear, then RBCs were diluted into 5% v/v suspension in 1×PBS. 50 μL compounds in PBS were 2-fold serially diluted in a 96-well plate, and incubated with 50 μL RBCs suspension for 1 h at 37° C. The mixture was then centrifuged for 10 min at 3500 rpm. Subsequently, 30 μL of the supernatant was added to 100 μL PBS, then the absorbance of mixture was read on a Biotek Synergy HT plate reader at 540 nm. The hemolytic activity was calculated by the formula % hemolysis=(Abssample−AbsPBS)/(AbsTriton−AbsPBS)×100%. 1% Triton X-100 were used as the positive control and 1×PBS buffer was used as the negative control.

SMILES: CCCCCCCCCCCC(=O)N[C@@H](CCCCN)CN1CC(=O)N(c2cccc(Cl)c2)C1=O [Compound 22, (S)—N-(6-amino-1-(3-(3-chlorophenyl)-2,4-dioxoimidazolidin-1-yl)hexan-2-yl)dodecanamide]
- SI (HC50/MIC): 190
